The text below walks through data of PubChem BioAssay AID445 (National Center for Advancing Translational Sciences (NCATS), 2006).

This assay can be described thus: IkB Signaling. Particulars: ABC-DLBCL IkBa-CBG/CBR dual luciferase ratio (green luciferase fused to IkBa over red control in OCI-Ly3 lymphoma cells), 4 h. An outline of the steps: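 Luminescence ratio of IκBα-fused green versus native red beetle luciferase in OCI-Ly3 cells, 4 h post-doxycycline with compound; red signal alone, scaled from basal (0%) to zero light (-100%), flagged nonspecific or cytotoxic effects.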
The mark [1] stands for this setting: measured here: control luc red channel unless noted.

Some of the results follow. These are further read-outs of the screen, such as a control signal, another cell line or another target. No call is given for them. The list favours compounds with an active or inconclusive main result. Words in brackets tell the shape of the fitted curve; partial curves, single points and poor fits give uncertain potencies.

The term AC50 denotes the concentration giving half of the maximal activity seen. Consider `Cc1ccc(S(=O)(=O)CCC(=O)Nc2ccc(OC(F)(F)F)cc2)cc1`, for which the AC50 under setting [1] was 20 µM [falling, single point].

Take `CCC(Sc1nc2ccncc2[nH]1)C(=O)Nc1cc(Cl)ccc1C` (stereo not drawn): under setting [1], the AC50 is 15.8 µM [falling, partial curve].

As to `CC1(C)CC(=O)C=C(Nc2cc(-c3ccccc3)[nH]n2)C1`, the AC50 under setting [1] was 6.31 µM [falling, partial curve].

Take `CCN(c1ccccc1)S(=O)(=O)c1nnc(NC(=O)c2ccccc2)s1`: the AC50 under setting [1] is 0.0794 µM [rising, full curve].

Turning to `O=C(Nc1ccccc1)N(Cc1c[nH]c2ccccc12)C1CCCCCC1`, the AC50 under setting [1] was 3.98 µM [falling, partial curve].

For the compound `O=C1CN(CC(=O)N2CCOCC2)c2ccccc2O1`, under setting [1], the AC50 is 1.58 µM [falling, full curve].

Regarding `Cc1cccc(OCc2nc(CC(=O)Nc3ccc(C)cc3C)cs2)c1`, the AC50 under setting [1] was 12.6 µM [falling, single point].

Take `Cc1cccc(N2CCN(C(=O)c3cnn(-c4ccccc4Cl)c3C3CCN(C(=O)OC(C)(C)C)CC3)CC2C)c1` (stereo not drawn): under setting [1], the AC50 is 39.8 µM [falling, single point].

Turning to `CCc1ccc(C2c3c(oc4ccc(F)cc4c3=O)C(=O)N2CCc2ccc(OC)cc2)cc1` (stereo not drawn), the AC50 under setting [1] is 5.01 µM [falling, partial curve].

On to `CCOC(=O)c1c(N)n(CCOC(=O)c2cccs2)c2nc3ccccc3nc12`, for which, under setting [1], the AC50 is 12.6 µM [falling, partial curve].

With `Cc1ccc(CNC(=O)Cn2c(=O)ccc3cc(S(=O)(=O)N4CCC(C)CC4)ccc32)cc1`, under setting [1], the concentration at half-maximal activity (AC50) was 0.1 µM [falling, full curve, poor fit].

Turning to `O=C(Nc1ccccc1C(F)(F)F)c1cc(-c2ccc3c(c2)OCCO3)on1`, the AC50 under setting [1] is 31.6 µM [falling, single point].

With `CCN(CC)CCNC(=O)C(=O)NCC(c1cccnc1)N1CCN(c2ccc(F)cc2)CC1` (stereo not drawn), the AC50 under setting [1] was 20 µM [falling, partial curve].

On to `COc1ccc2cc3cc(C(=O)Nc4cc(C)c(Cl)cc4OC)oc3nc2c1`, for which the AC50 under setting [1] is 0.501 µM [falling, full curve].

Turning to `CCc1cccc(CC)c1NC(=O)C1CCC(CNS(=O)(=O)c2cccc3nsnc23)CC1` (stereo not drawn), the AC50 under setting [1] was 31.6 µM [falling, partial curve].

Regarding `CC(=O)c1cccc(NS(=O)(=O)c2cc(-c3onc(C)c3C)ccc2C)c1`, under setting [1], the AC50 is 39.8 µM [falling, single point].

For `Cc1sc2c(c1C)c(=O)n(-c1ccc(Cl)cc1)c(=O)n2Cc1cc(=O)n2cc(Br)ccc2n1`, the AC50 under setting [1] is 0.2 µM [falling, full curve, poor fit].

Turning to `CCOC(=O)c1c(S(=O)(=O)N2CCCC(C(=O)NCc3ccccc3Cl)C2)c(C)n(C)c1C` (stereo not drawn), the AC50 under setting [1] was 0.631 µM [rising, full curve].

For `CCOC(=O)c1ccc(NC(=O)c2cccc(S(=O)(=O)N3CCOCC3)c2)cc1`, the AC50 under setting [1] is 5.01 µM [falling, full curve].

Consider `CC(C)c1ccc(NC(=O)CN2C(=O)CCc3cc(S(=O)(=O)N4CCOCC4)ccc32)cc1`, for which the AC50 under setting [1] is 12.6 µM [falling, partial curve].

Turning to `COc1ccc(S(=O)(=O)NCCc2sc(-c3cccc(F)c3)nc2C)cc1`, under setting [1], the AC50 is 31.6 µM [falling, partial curve, poor fit].

For `CC(C)c1ccc(NC(=O)c2ccc(F)c(S(=O)(=O)N3CCN(c4ccccc4F)CC3)c2)cc1`, the AC50 under setting [1] is 5.01 µM [falling, partial curve].

Turning to `COc1ccccc1N1CCN(C(=O)CSc2nnc3n2C(C)(C)Cc2ccccc2-3)CC1`, the AC50 under setting [1] was 12.6 µM [falling, partial curve].

Take `Cc1ccc(C(=O)/C=C/c2cn(CC(O)CN3CCCCCC3)c3ccccc23)cc1` (stereo not drawn): the AC50 under setting [1] was 12.6 µM [falling, partial curve].

Regarding `Cc1ccc(NC(=O)CSc2nccn2Cc2ccc3c(c2)OCO3)c(C)c1`, the AC50 under setting [1] was 0.631 µM [rising, full curve, poor fit].

With `CCC1=C(c2ccc(C)cc2)S(=O)(=O)N=C1N1CCC(C(=O)NCc2ccc(C)cc2)CC1`, the half-maximal activity concentration (AC50) under setting [1] is 25.1 µM [falling, single point].

Regarding `CCCSCCCNC(=O)CN1C(=O)CCn2nc(-c3cn(C)c4ccccc34)cc21`, the AC50 under setting [1] is 2 µM [falling, partial curve].

Turning to `COc1cc(NS(=O)(=O)c2ccc(NC(=O)c3ccc(OC)c(Br)c3)cc2)nc(OC)n1`, the half-maximal activity concentration (AC50) under setting [1] was 31.6 µM [falling, single point].

As for `Cn1c(=O)c2c(n3c4ccccc4nc13)NC(=O)CC2c1cccc(Cl)c1` (stereo not drawn), the AC50 under setting [1] is 0.251 µM [falling, full curve].

With `Cc1ccc(C)c(N2CCN(C(=O)C3CCCN(S(=O)(=O)c4cccc5nonc45)C3)CC2)c1` (stereo not drawn), the AC50 under setting [1] is 10 µM [falling, partial curve].

As for `CCc1ccc(O)c(N=Cc2cccc(C)c2O)c1`, under setting [1], the AC50 is 12.6 µM [falling, partial curve].

Take `CC(C)(C)NS(=O)(=O)c1ccc2nc(NC(=O)Cc3cccs3)sc2c1`: the AC50 under setting [1] is 15.8 µM [falling, partial curve].

Consider `C1=Nc2c(Nc3ccccc3)ncnc2Oc2ccccc21`, for which the AC50 under setting [1] is 39.8 µM [falling, single point].

Take `CCOc1ccc2nc(NC(=O)c3ccoc3C)sc2c1`: under setting [1], the AC50 was 5.01 µM [falling, partial curve].

On to `CC(=O)Nc1cccc(NC(=O)Cc2csc(COc3cccc(C)c3)n2)c1`, for which, under setting [1], the AC50 is 10 µM [falling, partial curve].

As to `COc1ccccc1N1CCN(S(=O)(=O)c2ccc(-n3cnnn3)cc2)CC1`, under setting [1], the AC50 is 12.6 µM [falling, partial curve].

Take `CCOC(=O)N1CCc2c(sc3c2c(=O)n(-c2ccc(CC)cc2)c(=O)n3Cc2cccc(OC)c2)C1`: the AC50 under setting [1] was 10 µM [falling, partial curve].

As for `CCOc1ccc(C(=O)Nc2ccc3c(c2)N(C(C)=O)CCC3)cc1OCC`, the AC50 under setting [1] was 39.8 µM [falling, partial curve].

Regarding `Cc1ccc(-n2nc3c(N4CCC(C(=O)N(C)Cc5ccccc5)CC4)nnc(C)c3c2C)cc1`, under setting [1], the AC50 is 12.6 µM [falling, single point].

For `Cn1cnnc1Sc1nc2ccccc2nc1NS(=O)(=O)c1ccccc1`, the AC50 under setting [1] was 3.16 µM [falling, partial curve].

Consider `CC(=O)N1c2ccc(S(=O)(=O)NCC3CCC(C(=O)Nc4cc(C)cc(C)c4)CC3)cc2CC1C` (stereo not drawn), for which the AC50 under setting [1] is 10 µM [falling, partial curve].

In the case of `CC(=O)Nc1ccc(S(=O)(=O)Nc2nc3n(n2)C(c2ccccc2)C=C(c2ccc(Cl)cc2)N3)cc1` (stereo not drawn), the AC50 under setting [1] is 20 µM [falling, single point].

Take `O=C(NCCN1CCCCC1)c1ccc(Cn2c(SCc3ccc(F)cc3)nc3cccnc32)cc1`: the AC50 under setting [1] was 20 µM [falling, partial curve].

`CN(C)c1ccc(CN(Cc2ccco2)C(=O)c2ccc(F)cc2)cc1`: the AC50 under setting [1] was 25.1 µM [falling, partial curve].

Regarding `COc1ccccc1CNC(=O)CCC(=O)N1Cc2ccccc2Oc2ncccc21`, the AC50 under setting [1] is 3.98 µM [rising, single point].

For the compound `COc1ccc(-c2nc3sc(CCNS(=O)(=O)c4c(C)cc(C)cc4C)c(C)n3n2)cc1`, the AC50 under setting [1] is 25.1 µM [falling, partial curve].

For the compound `Cc1c(C(=O)OCC2CCCO2)[nH]c2c1C(=O)CC(c1ccc(N(C)C)cc1)C2` (stereo not drawn), the AC50 under setting [1] was 39.8 µM [rising, single point] [measured here: IkB-luc green channel].

As to `Cc1cc(SCC(=O)Nc2nsc(-c3ccc(C(C)(C)C)cc3)n2)nc2ccccc12`, the AC50 under setting [1] is 3.98 µM [falling, full curve].

On to `COc1cccc(N2CCN(C(=O)c3c4c(nc5ccccc35)C(=O)N(C3CCCCC3)C4)CC2)c1`, for which, under setting [1], the AC50 was 10 µM [falling, partial curve].

On to `CN(C)CCSc1nnc(-c2ccccc2)o1`, for which the AC50 under setting [1] is 10 µM [falling, partial curve].

`CCOC(=O)Cn1c(=O)oc2cc(S(=O)(=O)N3CCCC(C)C3)ccc21` (stereo not drawn): the AC50 under setting [1] was 39.8 µM [falling, single point].

Regarding `Cc1ccc(C(=O)CSc2nnc(COc3cccc(C)c3)o2)cc1`, the AC50 under setting [1] is 15.8 µM [falling, partial curve].

Consider `O=C(NCc1ccc(Cl)cc1)c1ccc2oc(=O)n(Cc3ccccc3)c2c1`, for which the AC50 under setting [1] was 0.158 µM [rising, full curve, poor fit].

`CCOc1ccc(-c2n[nH]c(C)c2-c2ccccc2OC)c(O)c1`: the AC50 under setting [1] was 15.8 µM [falling, partial curve].

For the compound `CCCCOC(=O)Cn1nnc2sc(-c3ccccc3)cc2c1=O`, the AC50 under setting [1] was 15.8 µM [falling, single point].

Consider `O=C(CSc1ncc(-c2ccccc2)[nH]1)Nc1ccc(F)cc1F`, for which the AC50 under setting [1] is 12.6 µM [falling, partial curve].

`CCSc1nc2c(c(=O)n(C)c(=O)n2C)n1Cc1ccc(Cl)cc1`: the AC50 under setting [1] is 25.1 µM [falling, partial curve].

On to `CCc1ccccc1N1C(=O)N(CC(=O)c2ccc(Cl)cc2)c2ccccc2S1(=O)=O`, for which the AC50 under setting [1] was 31.6 µM [falling, single point].

As to `CCOC(=O)c1ccc(NCn2c(=O)oc3ccccc32)cc1`, the AC50 under setting [1] was 2.51 µM [falling, full curve].

As to `CCOc1ccc(C2=C(C(=O)CC)Sc3nncn3N2C(=O)CC)cc1`, the AC50 by setting is: (measured here: IkB-luc green channel) 25.1 µM [rising, partial curve]; (measured here: control luc red channel) 39.8 µM [falling, single point].

On to `O=C(Nc1ccc(Cl)cc1)c1cc(S(=O)(=O)N2CCCc3ccccc32)ccc1F`, for which, under setting [1], the AC50 is 10 µM [falling, partial curve].

As for `CCOC(=O)c1noc2ncn(Cc3cccc(C#N)c3)c(=O)c12`, under setting [1], the AC50 is 0.631 µM [falling, full curve, poor fit].
